Source: PubChem BioAssay AID504793 (Drosophila RNAi Screening Center, 2011)
In all, the deposit lists about 23,000 reagents; shown is a random part of those with a known target gene and a result. Of all reagents, 62 (0.27%) are marked active. 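Calls come from follow-up tests whose scores are not deposited, so confirmed genes may have low counts here; counts are not normalised per plate.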 Raw values are not corrected between plates. A plus sign joins genes that one reagent is predicted to hit. No sequences are given here.

Purpose: 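Genes required for cells to halt at G2/M after double-strand DNA breaks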 (primary screen)
System: Drosophila S2R+ cells
Knock-down reagent: long dsRNA against Drosophila genes, about 0.25 µg dsRNA per well
Duration: 4 days of dsRNA, then 4 hours of drug before read-out
Challenge: doxorubicin 0.5 µM for 4 hours to cause double-strand breaks, in cells also given a low, harmless dose of dsRNA against nbs to sensitise the assay
Measurement: 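Per-well count of mitotic cells stained for phospho-histone H3 after doxorubicin exposure, used as mitotic index; counts are raw and not normalised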
Scale: mitotic cells: higher = more cells in mitosis, weaker G2 arrest
Active means: 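Genes are called active only when high mitotic counts were reproduced with independent dsRNAs and mitosis was checked for delay without damage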
Calls: active = confirmed in follow-up tests; inactive = not confirmed

no.	predicted target	DRSC id	mitotic cells, replicate 1	outcome
1	CG17715	DRSC11950	10	inactive
2	Yod1	DRSC10433	5	inactive
3	Yod1	DRSC27122	1	inactive
4	CG4880	DRSC19923	5	inactive
5	CG11122	DRSC19382	4	inactive
6	CG11122	DRSC27302	6	inactive
7	Vm26Ab	DRSC03473	11	inactive
8	Vm26Ab	DRSC25223	6	inactive
9	Cpr65Aw	DRSC08794	4	inactive
10	l(3)72Dn	DRSC10468	6	inactive
11	CG14414	DRSC19599	16	inactive
12	CG31861	DRSC21665	11	inactive
13	CG31861	DRSC29279	4	inactive
14	CG7024	DRSC18414	10	inactive
15	CG7024	DRSC27277	5	inactive
16	frm	DRSC09753	15	inactive
17	frm	DRSC25370	4	inactive
18	CG12017	DRSC08225	4	inactive
19	CG12017	DRSC28937	3	inactive
20	CG11695	DRSC19416	8	inactive
21	CG11695	DRSC29760	3	inactive
22	CG16989	DRSC18535	9	inactive
23	CG16989	DRSC29403	6	inactive
24	hpRNA:CR18854 + IP3K1	DRSC02218	1	inactive
25	PI31	DRSC07306	9	inactive
26	mus81	DRSC18180	18	inactive
27	mus81	DRSC18644	13	inactive
28	CG15118	DRSC06540	3	inactive
29	Klp67A	DRSC11205	35	inactive
30	Klp67A	DRSC26028	49	inactive
31	CG3909	DRSC14150	8	inactive
32	CG15641	DRSC19677	13	inactive
33	CG12661	DRSC17864	7	inactive
34	CG12661	DRSC29244	4	inactive
35	CG8813	DRSC00706	1	inactive
36	CG31777	DRSC00201	3	inactive
37	GstE10	DRSC06671	6	inactive
38	GstE10	DRSC28568	11	inactive
39	Sec24CD	DRSC00300	8	inactive
40	Tom	DRSC11306	9	inactive
41	Tom	DRSC27660	6	inactive
42	GluRIB + CG42509 (retired record)	DRSC10258	9	inactive
43	GluRIB + CG42509 (retired record)	DRSC11177	1	inactive
44	GluRIB + CG42509 (retired record)	DRSC25464		inactive
45	skd	DRSC11898	5	inactive
